The assay concerns the target T1, GST-Sli15 (S. cerevisiae) (UniProt P38283).
T1 sequence: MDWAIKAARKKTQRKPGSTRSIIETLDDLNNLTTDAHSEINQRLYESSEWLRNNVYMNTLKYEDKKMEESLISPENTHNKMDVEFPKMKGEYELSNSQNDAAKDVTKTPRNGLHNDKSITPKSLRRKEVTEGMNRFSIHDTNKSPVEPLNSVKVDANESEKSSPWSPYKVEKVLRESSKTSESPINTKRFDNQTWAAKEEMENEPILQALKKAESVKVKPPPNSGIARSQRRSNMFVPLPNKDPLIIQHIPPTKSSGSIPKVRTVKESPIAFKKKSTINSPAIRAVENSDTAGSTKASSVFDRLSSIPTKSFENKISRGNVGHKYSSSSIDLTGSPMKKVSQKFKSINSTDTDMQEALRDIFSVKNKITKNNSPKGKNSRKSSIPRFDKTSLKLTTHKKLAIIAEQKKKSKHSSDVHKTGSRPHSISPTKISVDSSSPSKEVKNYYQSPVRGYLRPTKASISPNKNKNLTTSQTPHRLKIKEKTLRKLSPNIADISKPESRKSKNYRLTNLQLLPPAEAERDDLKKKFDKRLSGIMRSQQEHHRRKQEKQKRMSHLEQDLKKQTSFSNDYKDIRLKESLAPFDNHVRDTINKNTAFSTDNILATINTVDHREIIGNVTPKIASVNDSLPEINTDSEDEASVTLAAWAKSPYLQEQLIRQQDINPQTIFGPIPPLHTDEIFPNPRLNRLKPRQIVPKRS
As to the kind of experiment: pull-down; GST-Sli15 immobilized on glutathione beads incubated with yeast extract, 4°C, 45 min, yeast lysis buffer (20 mM Tris pH 7.5, 100 mM NaCl, 1 mM DTT, 0.1% Triton X-100, 1 mM EDTA); anti-c-Myc Western blot; only the target purified.

These are yes or no findings as the source states them, for the method shown. Binding seen in cells or lysates may run through a third protein. Some entries that bind do so weakly or less than the wild type. Tags and fused reporters may be left off the sequences shown.

B1: full-length She1-13myc (protein, UniProt P38200 1-338)
chain: MNDKLQEEHNEKDTTSQINGFTPPHMSIDFHSNNNSNIIETIGVSKRLGNSVLSELDSRASSKFEFLKDQSEQQYNGDKNNEPKSGSYNINEFFQAKHDSQFGQMESLDTHYTLLHTPKRKSQHAIPQDRSDSMKRSRPSRSIPYTTPVVNDITRRIRRLKLRNSLVNGNDIVARARSMQANSNINSIKNTPLSKPKPFMHKPNFLMPTTNSLNKINSAHRNTSSSSTASSIPRSKVHRSISIRDLHAKTKPVERTPVAQGTNSQLKNSVSVFDRLYKQTTFSRSTSMNNLSSGTSAKSKEHTNVKTRLVKSKTSGSLSSNLKQSTATGTKSDRPIWR
On to B1, for which the binding result is “binds”.

The values above are taken from PMC5584168.
